Test results published in PubChem BioAssay AID493014 (National Center for Advancing Translational Sciences (NCATS), 2011).
The other results are listed elsewhere or left out. The main result of the screen is listed elsewhere. These columns were measured beside it and carry no call. The list favours compounds with an active or inconclusive main result. Words in brackets tell the shape of the fitted curve; partial curves, single points and poor fits give uncertain potencies.

Assay: qHTS Assay to Find Inhibitors of Chronic Active B-Cell Receptor Signaling
Conditions: ABC-DLBCL IkBa-CBG/CBR reporter, luminescence ratio (green luciferase fused to IkBa over red control in TMD8 lymphoma cells), 4 h
Summary of the method: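 TMD8 ABC-DLBCL cells carrying doxycycline-inducible green luciferase fused to IkappaBalpha plus unfused red luciferase were exposed to compounds (up to 46 uM) for 4 hrs at 37C. Activity came from the overlap-corrected green/red luminescence ratio.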

[1] = measured here: CBR red luminescence, cell number
[2] = measured here: IkBa-CBG green luminescence

With `CCOc1ccccc1CN1CCCC(C(=O)Nc2cccc(-n3cccn3)c2)C1` (centres undefined) the AC50 [1] was 35.5 µM [falling, single point].

For `COc1cc(/C=N/N=C(\N)c2nonc2N)cc(OC)c1O`, the AC50 [1] was 35.5 µM [falling, single point].

With `CCC(C)NS(=O)(=O)c1ccc(OCC(=O)NCc2cccnc2)cc1` (centres undefined) the AC50 [1] was 25.9 µM [rising, single point].

In the case of `Cc1cc(N=Cc2c(O)ccc3cc(Br)ccc23)no1`, the AC50 [1] is reported as 25.9 µM [falling, single point].

For `O=C(NCCOc1ccc(Cl)cc1)c1ccco1`, the AC50 [1] was 12.6 µM [rising, partial curve].

In the case of `O=C(CSc1nnc(-c2cccnc2)o1)c1cc2ccccc2oc1=O`, the AC50 [1] is reported as 9.2 µM [falling, partial curve, poor fit].

With `O=C(O)C1CCN(c2nc(-c3ccccc3)c3cc(Br)ccc3n2)CC1` the AC50 [1] was 5.62 µM [falling, full curve] and the AC50 [2] was 3.16 µM [rising, full curve, poor fit].

With `CCn1c(/C=C/c2ccc(F)cc2)nc2ccccc2c1=O` the AC50 [1] was 3.98 µM [rising, single point].

In the case of `COc1ccc(-n2cc(CNCc3cnc4ccccn34)c(-c3cccc(F)c3)n2)cc1`, the AC50 [1] is reported as 14.1 µM [falling, single point] and the AC50 [2] is reported as 31.6 µM [rising, partial curve, poor fit].

With `O=C(NC12CC3CC(CC(C3)C1)C2)c1ccc(-c2ccc(Br)cc2)o1` the AC50 [1] was 11.6 µM [rising, partial curve].

For `CCOC(=O)CCCc1c[nH]c2ccccc12`, the AC50 [1] was 6.31 µM [rising, single point].

For `S=C(Nc1cccc2ccccc12)NC1CCCCC1`, the AC50 [1] was 28.2 µM [rising, single point].

For `O=C(NC1CC1)c1cccc(Nc2ccc(-c3ccc4c(c3)OCCO4)nn2)c1`, the AC50 [1] was 3.26 µM [falling, full curve, poor fit].

For `Cc1cccc(NC(=S)N(Cc2cccs2)Cc2cc3cc(C)cc(C)c3[nH]c2=O)c1`, the AC50 [1] was 16.4 µM [rising, single point].

For `COC(=O)N/N=C/c1sc(N2CCCCC2)nc1-c1cccs1`, the AC50 [1] was 35.5 µM [falling, single point].

For `COc1ccc(C)cc1NS(=O)(=O)c1cc(C)ccc1C`, the AC50 [1] was 20.6 µM [rising, single point].

With `C/C(=N\NC(=O)c1ccc(O)cc1)c1ccc(NC(=O)Cc2ccccc2)cc1` the AC50 [1] was 0.501 µM [falling, full curve, poor fit].

With `Cc1ccc(NC(=O)COC(=O)c2cccc(N3C(=O)c4ccccc4C3=O)c2)cc1` the AC50 [1] was 8.91 µM [falling, partial curve, poor fit].

For `Cc1nc(S/C(=C/c2ccc(-c3ccc(Cl)cc3)o2)C(=O)O)n[nH]1`, the AC50 [1] was 0.116 µM [falling, full curve, poor fit].

With `CC1=NN(C(=O)c2cc(C)nn2C)C(O)(C(F)(F)F)C1` (centres undefined) the AC50 [1] was 29.1 µM [falling, single point].

In the case of `CCN(CC)CCNc1nc(-c2ccccc2)c2c(c1C#N)CC(C)(C)OC2`, the AC50 [1] is reported as 6.51 µM [rising, single point].

In the case of `CCOC(=S)N/C(=N\S(=O)(=O)c1ccccc1)c1ccccc1`, the AC50 [1] is reported as 5.17 µM [rising, full curve, poor fit].

In the case of `COc1ccc(C2CC3(CC(C)(C)NC(=S)N3)Oc3cc(O)cc(C)c32)cc1OC` (centres undefined), the AC50 [1] is reported as 15.8 µM [falling, partial curve].

For `O=C(Nc1ccc(S(=O)(=O)N2CCOCC2)cc1)c1ccc(Br)o1`, the AC50 [1] was 4.11 µM [rising, single point].

With `CCOc1ccccc1NC(=O)CSc1nnc(-c2cnccn2)n1CC` the AC50 [1] was 20.6 µM [falling, single point].

With `CN(C)CCOc1ccccc1-c1ccccc1` the AC50 [1] was 1.64 µM [rising, partial curve, poor fit].

For `N=C1N(/N=C/c2ccccc2)C(=Nc2ccccc2)C(=S)N1c1ccccc1`, the AC50 [1] was 16.4 µM [falling, partial curve].

In the case of `COc1ccc(S(=O)(=O)Nc2ccc(Oc3ccsc3C(=O)O)cc2)cc1`, the AC50 [1] is reported as 5.62 µM [rising, full curve, poor fit].

For `COc1cc(C(=S)N2CCCCC2)ccc1O`, the AC50 [1] was 29.1 µM [rising, single point].

For `O=C(N/N=C\c1ccc(Cl)cc1Cl)c1sccc1-n1cccc1`, the AC50 [1] was 5.01 µM [rising, partial curve, poor fit].

In the case of `COc1ccc(-n2cc(-c3ccc(Cl)cc3)[nH]c2=S)cc1`, the AC50 [1] is reported as 22.4 µM [rising, partial curve, poor fit].

For `CCN(CC)S(=O)(=O)c1ccc(NC(=O)CSc2ncnc3ccccc23)cc1`, the AC50 [1] was 20.6 µM [falling, single point].

In the case of `CCOc1ccccc1NC(=O)NCc1ccccc1F`, the AC50 [1] is reported as 35.5 µM [rising, single point].

In the case of `N/C(CN1CCCC1=O)=N\OC(=O)c1ccc(Cl)c(Cl)c1`, the AC50 [1] is reported as 16.4 µM [rising, partial curve, poor fit].

With `O=C(CCN1N=C(c2ccccc2)CCC1=O)NC1CCCC1` the AC50 [1] was 0.112 µM [rising, full curve, poor fit].

In the case of `O=C(COc1ccc(F)cc1)OCCN1CCOCC1`, the AC50 [1] is reported as 29.1 µM [falling, single point].

With `CCOc1ccc(N=C(C)C2=C(O)c3ccccc3C2=O)cc1` the AC50 [1] was 2 µM [rising, partial curve, poor fit].

With `CCS(=O)(=O)N1Cc2ccccc2CC1C(=O)Nc1ccc(OC)c(OC)c1` (centres undefined) the AC50 [1] was 35.5 µM [rising, partial curve, poor fit].

With `COc1ccccc1N(CC(=O)NCCSCc1ccc(C)cc1)S(=O)(=O)c1ccccc1` the AC50 [1] was 15.8 µM [falling, partial curve].

With `Cc1cc(Br)ccc1NC(=O)CN(C)Cc1cccs1` the AC50 [1] was 15.8 µM [rising, partial curve].

With `Cc1noc(C)c1COc1cccc(C(=O)OC(C)C(=O)Nc2ccc3c(c2)OCO3)c1` (centres undefined) the AC50 [2] was 29.1 µM [falling, single point].

In the case of `CC1CCCC(NC(=O)c2cn(C)c3ccc(S(=O)(=O)N4CCCC4)cc3c2=O)C1C` (centres undefined), the AC50 [1] is reported as 29.1 µM [rising, single point].

For `Cc1noc(C)c1C(=O)OC(C)C(=O)NC(C)c1ccc(Cl)cc1Cl` (centres undefined), the AC50 [1] was 0.411 µM [falling, partial curve, poor fit].

With `O=C1C=C(Nc2ccccc2O)c2ccccc2C1=O` the AC50 [1] was 5.01 µM [falling, full curve].

In the case of `Cc1cc(C(=O)N/N=C2\CCCC(=O)C2)c(C)o1`, the AC50 [1] is reported as 29.1 µM [falling, single point].

With `Cc1ccc(C(=O)CCC(=O)Nc2ncccc2O)cc1` the AC50 [1] was 23.1 µM [falling, partial curve, poor fit].

With `O=C(NNC(=S)Nc1ccc(Br)cc1)c1ccccc1Br` the AC50 [1] was 15.8 µM [falling, single point].

For `COc1cccc(C2=C(C(C)=O)Sc3nncn3N2C(C)=O)c1`, the AC50 [1] was 1.41 µM [falling, partial curve].

In the case of `Cc1ccc(-c2c3c(=O)n(C)c(=O)n(C)c3cn2CCCN2CCOCC2)cc1`, the AC50 [1] is reported as 20.6 µM [rising, single point].

In the case of `CCOC(=O)C1=C(O)/C(=C\c2cc(C)n(-c3ccc(F)cc3)c2C)N=C1C`, the AC50 [1] is reported as 5.62 µM [falling, full curve, poor fit].

With `c1ccc(CCNc2nc(-c3cccnc3)cs2)cc1` the AC50 [1] was 0.411 µM [rising, partial curve, poor fit].

With `Cc1ccc2nc(NC(=O)c3ccc(Br)o3)sc2c1` the AC50 [1] was 2.82 µM [falling, full curve].

For `O=C(N/N=C/c1ccccc1[N+](=O)[O-])c1cccs1`, the AC50 [1] was 35.5 µM [falling, single point].

With `C[C@@]12C(=O)OC(=O)[C@]1(C)C1CCC2O1` the AC50 [1] was 3.26 µM [rising, full curve] and the AC50 [2] was 3.26 µM [falling, full curve].

In the case of `CN1CCN(CC(=O)Nc2cccc(S(=O)(=O)N(C)c3ccccc3)c2)CC1`, the AC50 [1] is reported as 11.6 µM [rising, partial curve, poor fit].

With `Cc1ccnc(SCC(=O)c2cccc([N+](=O)[O-])c2)n1` the AC50 [1] was 0.00517 µM [rising, full curve, poor fit].

With `Cc1nc([N+](=O)[O-])c(Br)n1CC(=O)c1ccc2ccccc2c1` the AC50 [1] was 20.6 µM [falling, single point].

With `CCc1ccc(C(=O)NNC(=O)Cn2c(=O)cnc3ccccc32)cc1` the AC50 [1] was 16.4 µM [rising, partial curve].

With `COc1ccc(-c2ccc(C#N)c(SCC(=O)OCc3ccccc3)n2)cc1OC` the AC50 [1] was 7.08 µM [rising, partial curve, poor fit].

For `COc1cccc(NC(=S)Nc2ccc(F)cc2)c1`, the AC50 [1] was 35.5 µM [rising, single point].

For `CCOC(=O)N1CCN(CC(=O)N2c3ccccc3Sc3ccccc32)CC1`, the AC50 [1] was 14.1 µM [falling, partial curve, poor fit].

In the case of `O=C(CCSc1ccccc1)N1CCN(c2ccccc2)CC1`, the AC50 [1] is reported as 3.16 µM [rising, single point].

For `COc1ccc(NC(=O)Nc2ccc(F)c(Cl)c2)cc1`, the AC50 [1] was 35.5 µM [falling, partial curve, poor fit].

In the case of `COc1ccc2oc(=O)c(C(=O)N3CCc4ccccc43)cc2c1`, the AC50 [1] is reported as 0.0651 µM [falling, partial curve, poor fit].

With `C/C(=N\NC(=S)NC(C)C)c1ccc2c(c1)OCCO2` the AC50 [1] was 29.1 µM [falling, single point] and the AC50 [2] was 23.1 µM [falling, single point].
